Test results taken from publication PMC5228053.
No constants are given. Whether binding was seen depends on the method and setting. Binding seen in cells or lysates may run through a third protein. Some entries that bind do so weakly or less than the wild type.

Sequences of proteins named here, by UniProt entry; tags and fusion partners are left off.
UniProt P14618: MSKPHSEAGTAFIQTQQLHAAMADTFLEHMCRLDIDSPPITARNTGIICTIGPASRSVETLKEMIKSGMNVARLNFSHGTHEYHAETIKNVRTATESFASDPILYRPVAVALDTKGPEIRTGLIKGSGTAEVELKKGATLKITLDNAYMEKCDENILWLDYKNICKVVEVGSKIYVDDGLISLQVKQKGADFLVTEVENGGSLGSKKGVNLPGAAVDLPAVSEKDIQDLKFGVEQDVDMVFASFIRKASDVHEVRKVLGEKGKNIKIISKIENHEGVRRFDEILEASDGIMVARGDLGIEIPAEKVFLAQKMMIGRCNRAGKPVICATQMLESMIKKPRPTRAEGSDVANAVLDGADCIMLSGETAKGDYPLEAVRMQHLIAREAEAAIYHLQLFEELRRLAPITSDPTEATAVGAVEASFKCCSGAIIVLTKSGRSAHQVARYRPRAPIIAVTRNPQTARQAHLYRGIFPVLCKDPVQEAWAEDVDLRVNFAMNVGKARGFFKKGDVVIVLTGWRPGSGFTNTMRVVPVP

Biological target: T1, synaptosome-associated protein 23 (SNAP-23) (human (endogenous in A549)) (UniProt O00161)
T1 sequence: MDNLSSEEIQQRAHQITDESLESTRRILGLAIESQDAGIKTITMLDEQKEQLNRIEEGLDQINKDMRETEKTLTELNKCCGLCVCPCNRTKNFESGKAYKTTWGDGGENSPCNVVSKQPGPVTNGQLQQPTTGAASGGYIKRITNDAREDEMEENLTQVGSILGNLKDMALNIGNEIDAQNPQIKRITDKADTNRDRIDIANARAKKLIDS
Test: co-IP; endogenous proteins; A549 cell lysate pre-cleared with control IgG (legend: isolated exosome fraction from A549 cells); IP with anti-SNAP-23 or anti-PKM2 antibody or normal IgG, protein G-agarose; lysis buffer 20 mM Tris-HCl, 150 mM NaCl, 0.5% Nonidet P-40, 2 mM EDTA, 0.5 mM DTT, pH 7.4; blotted in a cross manner

Question: Which binding does the source give for “pyruvate kinase type M2 (PKM2) (from UniProt P14618 1-531) (enzyme)” here?
Answer: binds
